This data set can be described thus: general procedure: Fmoc solid-phase peptide synthesis; Rink amide MBHA resin or 2-chlorotrityl chloride resin; PyBop/DIEA. The following applies: head-to-tail ring, sequence written open; for cyclisation yield: cyclisation step; for step yield: late stage modification step.

The substance ACRCLCRRGDCRCICRGN(OH)SL came in with a cyclisation yield of 95% and a step yield of more than 95%.

For the substance “GGVCPKILKKCRRDSDCPGACICRGNGYCGSGSN(OH)IV”, the cyclisation yield is 95% and the step yield is given as more than 95%.

As to GLPVCGETCFGGTCNTPGCSCTWPICTRN(OH)IV, the cyclisation yield worked out at 80% and the step yield is reported as more than 95%.

Substance GRCTKSIPPICFPN(OH)IV displayed a cyclisation yield of 85% and a step yield of more than 95%.

The record behind these values is US12655458B2 (priority 2021, dated 2026).
